This is one part of the list.
Tests used:
Assay in all cases: log2 fold change, soluble protein after heating vs DMSO (PISA); higher = thermal stabilisation; K562 cells, 10 uM, 30 min; active = over 0.2 and 3.5 SD of the protein, either way, in both replicates (recomputed)
[1] = compound: C1=CC=C(C=C1)[C@H](COC2=CC3=C(C=C2)NC(=O)N3)NC(=O)C4=CC=CN(C4=O)CC5=CC(=C(C=C5)F)F
Summary of the method: (§1)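 Thermal stability values are relative to control samples and come from duplicates. They are expressed as log2 fold changes. For measurement, K562 cells (2×10^6 cells/mL) received 10 μM compound for 30 min, and aliquots were heated for 3 min over 48°C-58°C, pooled, and extracted at 4°C in PBS with 0.5% NP-40. Soluble protein, the supernatant after 21,000xg for 90 min, was quantified by TMTpro 16plex LC-MS/MS with equalised channel sums.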

Sequences of proteins named here, by UniProt entry; tags and fusion partners are left off. A change or cut given only in a name is not applied to a line headed by its entry.
UniProt O75663: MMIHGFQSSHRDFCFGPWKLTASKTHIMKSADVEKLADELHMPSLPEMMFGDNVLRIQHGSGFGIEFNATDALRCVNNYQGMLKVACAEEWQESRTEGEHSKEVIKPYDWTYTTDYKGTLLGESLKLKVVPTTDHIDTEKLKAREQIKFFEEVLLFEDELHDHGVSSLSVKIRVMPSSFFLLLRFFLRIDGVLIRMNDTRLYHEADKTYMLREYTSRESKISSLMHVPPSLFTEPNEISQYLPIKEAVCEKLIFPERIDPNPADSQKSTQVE
UniProt Q13769: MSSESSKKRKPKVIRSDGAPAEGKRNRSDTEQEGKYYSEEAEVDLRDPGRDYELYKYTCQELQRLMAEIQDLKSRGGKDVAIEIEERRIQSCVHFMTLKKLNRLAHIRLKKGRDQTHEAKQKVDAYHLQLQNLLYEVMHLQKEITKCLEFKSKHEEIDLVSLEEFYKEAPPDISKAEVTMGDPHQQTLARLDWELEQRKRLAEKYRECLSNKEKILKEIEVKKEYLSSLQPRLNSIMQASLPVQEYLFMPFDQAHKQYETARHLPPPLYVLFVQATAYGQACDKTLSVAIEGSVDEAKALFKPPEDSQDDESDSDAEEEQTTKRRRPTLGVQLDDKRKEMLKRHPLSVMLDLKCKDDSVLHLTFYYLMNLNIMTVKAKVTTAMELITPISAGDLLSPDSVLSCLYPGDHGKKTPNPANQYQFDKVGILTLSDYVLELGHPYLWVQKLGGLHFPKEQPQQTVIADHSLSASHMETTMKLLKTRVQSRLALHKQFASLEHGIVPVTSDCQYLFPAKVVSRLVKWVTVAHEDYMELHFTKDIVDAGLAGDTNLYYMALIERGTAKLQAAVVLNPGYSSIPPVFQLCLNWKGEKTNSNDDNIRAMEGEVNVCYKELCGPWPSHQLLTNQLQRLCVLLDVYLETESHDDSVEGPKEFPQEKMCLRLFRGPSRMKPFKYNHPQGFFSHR
UniProt Q9Y6I9: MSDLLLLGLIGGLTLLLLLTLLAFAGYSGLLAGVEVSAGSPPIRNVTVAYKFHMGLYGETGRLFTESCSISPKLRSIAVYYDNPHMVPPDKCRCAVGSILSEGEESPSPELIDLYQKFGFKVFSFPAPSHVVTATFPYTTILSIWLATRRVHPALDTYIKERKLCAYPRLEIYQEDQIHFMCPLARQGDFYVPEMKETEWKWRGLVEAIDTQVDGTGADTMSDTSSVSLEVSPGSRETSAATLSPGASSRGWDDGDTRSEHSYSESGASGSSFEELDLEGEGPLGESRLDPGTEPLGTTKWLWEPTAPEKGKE
UniProt Q9UGI8: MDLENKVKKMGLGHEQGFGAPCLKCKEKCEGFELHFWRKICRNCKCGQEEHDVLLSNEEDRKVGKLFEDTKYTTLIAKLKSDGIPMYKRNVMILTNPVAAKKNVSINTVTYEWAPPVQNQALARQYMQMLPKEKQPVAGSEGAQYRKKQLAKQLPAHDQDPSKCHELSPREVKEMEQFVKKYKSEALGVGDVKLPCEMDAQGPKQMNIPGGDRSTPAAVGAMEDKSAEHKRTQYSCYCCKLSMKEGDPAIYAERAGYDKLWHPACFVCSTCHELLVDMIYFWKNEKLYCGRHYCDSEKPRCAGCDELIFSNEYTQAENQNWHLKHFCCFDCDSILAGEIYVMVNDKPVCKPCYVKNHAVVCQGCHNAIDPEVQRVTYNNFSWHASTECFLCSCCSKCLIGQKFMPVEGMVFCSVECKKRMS
UniProt P10646, whole entry, looked up: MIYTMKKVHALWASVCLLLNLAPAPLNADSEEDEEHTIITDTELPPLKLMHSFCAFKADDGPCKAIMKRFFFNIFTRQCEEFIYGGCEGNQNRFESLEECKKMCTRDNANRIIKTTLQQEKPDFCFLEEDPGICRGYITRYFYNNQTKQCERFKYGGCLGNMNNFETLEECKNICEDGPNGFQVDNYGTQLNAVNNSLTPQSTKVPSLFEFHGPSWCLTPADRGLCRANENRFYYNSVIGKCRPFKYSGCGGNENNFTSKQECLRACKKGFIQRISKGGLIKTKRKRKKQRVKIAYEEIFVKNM
UniProt Q9NWX6: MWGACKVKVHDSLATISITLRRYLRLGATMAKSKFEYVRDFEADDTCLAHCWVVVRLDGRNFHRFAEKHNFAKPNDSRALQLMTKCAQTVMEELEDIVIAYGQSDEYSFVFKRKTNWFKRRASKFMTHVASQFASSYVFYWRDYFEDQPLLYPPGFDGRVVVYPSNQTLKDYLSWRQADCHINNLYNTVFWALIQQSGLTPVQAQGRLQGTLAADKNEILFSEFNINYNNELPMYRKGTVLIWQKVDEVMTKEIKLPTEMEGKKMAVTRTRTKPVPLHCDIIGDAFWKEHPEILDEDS
UniProt Q9NU19: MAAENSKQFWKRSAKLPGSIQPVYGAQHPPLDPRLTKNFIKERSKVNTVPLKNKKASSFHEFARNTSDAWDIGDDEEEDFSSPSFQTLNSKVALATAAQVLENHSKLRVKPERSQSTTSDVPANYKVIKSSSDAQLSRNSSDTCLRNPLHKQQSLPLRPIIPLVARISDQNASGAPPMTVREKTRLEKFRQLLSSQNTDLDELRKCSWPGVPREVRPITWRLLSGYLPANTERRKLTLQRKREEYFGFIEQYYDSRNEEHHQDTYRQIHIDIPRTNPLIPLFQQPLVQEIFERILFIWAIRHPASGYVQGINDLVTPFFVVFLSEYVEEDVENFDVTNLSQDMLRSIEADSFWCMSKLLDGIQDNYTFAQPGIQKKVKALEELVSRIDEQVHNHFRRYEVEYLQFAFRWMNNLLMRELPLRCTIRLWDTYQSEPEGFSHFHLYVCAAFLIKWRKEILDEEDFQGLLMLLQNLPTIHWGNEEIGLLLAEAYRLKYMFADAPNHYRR
UniProt Q92609: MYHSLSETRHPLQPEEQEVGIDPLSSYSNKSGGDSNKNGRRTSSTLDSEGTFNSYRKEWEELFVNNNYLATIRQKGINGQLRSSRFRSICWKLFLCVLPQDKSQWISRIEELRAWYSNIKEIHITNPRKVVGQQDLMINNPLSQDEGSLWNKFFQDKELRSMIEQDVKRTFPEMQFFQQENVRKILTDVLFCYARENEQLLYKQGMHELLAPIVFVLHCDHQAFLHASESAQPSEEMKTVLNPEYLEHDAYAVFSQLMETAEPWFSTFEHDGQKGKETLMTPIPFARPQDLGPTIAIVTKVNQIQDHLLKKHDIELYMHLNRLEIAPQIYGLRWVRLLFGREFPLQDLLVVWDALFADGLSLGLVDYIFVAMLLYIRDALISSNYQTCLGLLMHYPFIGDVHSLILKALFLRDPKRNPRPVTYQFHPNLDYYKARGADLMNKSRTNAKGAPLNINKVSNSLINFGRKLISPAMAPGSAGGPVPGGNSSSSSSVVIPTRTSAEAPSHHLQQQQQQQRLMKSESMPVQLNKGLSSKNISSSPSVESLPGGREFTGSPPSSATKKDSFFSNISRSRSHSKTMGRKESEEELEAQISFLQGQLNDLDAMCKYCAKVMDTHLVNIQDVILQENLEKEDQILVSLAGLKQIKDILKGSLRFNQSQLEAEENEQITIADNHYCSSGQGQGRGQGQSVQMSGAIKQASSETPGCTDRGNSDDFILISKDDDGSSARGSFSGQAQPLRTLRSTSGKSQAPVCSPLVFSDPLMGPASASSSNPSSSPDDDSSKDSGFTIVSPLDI
UniProt Q96BS2: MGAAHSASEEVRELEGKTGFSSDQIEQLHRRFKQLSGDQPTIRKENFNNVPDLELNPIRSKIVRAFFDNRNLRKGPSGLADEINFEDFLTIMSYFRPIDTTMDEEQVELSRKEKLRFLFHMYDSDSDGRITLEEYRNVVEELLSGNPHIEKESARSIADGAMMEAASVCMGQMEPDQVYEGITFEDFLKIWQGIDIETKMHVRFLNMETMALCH
UniProt P02787, whole entry, looked up: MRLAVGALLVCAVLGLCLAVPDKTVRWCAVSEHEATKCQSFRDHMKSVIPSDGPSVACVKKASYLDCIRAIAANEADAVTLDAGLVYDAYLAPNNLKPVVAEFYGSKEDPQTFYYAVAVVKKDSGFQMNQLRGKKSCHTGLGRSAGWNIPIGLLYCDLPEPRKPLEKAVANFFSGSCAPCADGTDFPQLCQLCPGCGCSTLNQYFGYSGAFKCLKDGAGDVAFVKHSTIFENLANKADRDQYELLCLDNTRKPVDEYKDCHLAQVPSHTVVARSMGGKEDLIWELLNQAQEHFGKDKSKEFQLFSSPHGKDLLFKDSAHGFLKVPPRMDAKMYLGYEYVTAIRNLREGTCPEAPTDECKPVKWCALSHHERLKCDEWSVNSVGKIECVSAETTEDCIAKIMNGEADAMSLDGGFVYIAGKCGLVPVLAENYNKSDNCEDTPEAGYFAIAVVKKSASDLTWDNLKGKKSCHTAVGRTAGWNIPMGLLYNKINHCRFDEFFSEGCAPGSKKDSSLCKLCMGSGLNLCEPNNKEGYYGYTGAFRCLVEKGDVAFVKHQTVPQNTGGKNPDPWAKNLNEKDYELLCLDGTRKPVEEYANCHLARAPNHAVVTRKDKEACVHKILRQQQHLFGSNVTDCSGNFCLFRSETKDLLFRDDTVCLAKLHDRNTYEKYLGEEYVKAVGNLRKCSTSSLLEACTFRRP
UniProt Q92734, whole entry, looked up: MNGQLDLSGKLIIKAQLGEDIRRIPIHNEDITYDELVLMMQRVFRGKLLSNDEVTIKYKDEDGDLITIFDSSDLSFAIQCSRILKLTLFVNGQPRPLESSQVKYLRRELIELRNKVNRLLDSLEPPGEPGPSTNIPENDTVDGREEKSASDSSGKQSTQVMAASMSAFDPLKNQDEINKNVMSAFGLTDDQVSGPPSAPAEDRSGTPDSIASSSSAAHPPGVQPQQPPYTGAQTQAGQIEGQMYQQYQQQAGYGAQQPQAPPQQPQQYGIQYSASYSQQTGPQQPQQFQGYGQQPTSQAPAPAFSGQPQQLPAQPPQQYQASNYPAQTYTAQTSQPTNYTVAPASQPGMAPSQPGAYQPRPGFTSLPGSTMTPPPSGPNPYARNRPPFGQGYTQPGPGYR
UniProt Q15813: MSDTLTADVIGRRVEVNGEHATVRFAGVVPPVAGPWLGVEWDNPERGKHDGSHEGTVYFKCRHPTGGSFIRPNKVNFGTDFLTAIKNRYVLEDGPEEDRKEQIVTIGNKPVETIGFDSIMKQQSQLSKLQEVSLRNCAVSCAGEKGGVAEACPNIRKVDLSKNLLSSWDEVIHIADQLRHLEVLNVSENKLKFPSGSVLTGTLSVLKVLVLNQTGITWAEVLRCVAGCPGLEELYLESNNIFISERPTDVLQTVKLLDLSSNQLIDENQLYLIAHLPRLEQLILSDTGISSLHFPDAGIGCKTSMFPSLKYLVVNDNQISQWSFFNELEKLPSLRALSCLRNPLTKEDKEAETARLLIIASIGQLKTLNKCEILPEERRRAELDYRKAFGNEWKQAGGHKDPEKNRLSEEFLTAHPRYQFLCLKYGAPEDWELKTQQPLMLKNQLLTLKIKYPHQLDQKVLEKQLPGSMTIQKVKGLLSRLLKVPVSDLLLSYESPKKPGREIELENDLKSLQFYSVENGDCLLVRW
UniProt Q9ULP9: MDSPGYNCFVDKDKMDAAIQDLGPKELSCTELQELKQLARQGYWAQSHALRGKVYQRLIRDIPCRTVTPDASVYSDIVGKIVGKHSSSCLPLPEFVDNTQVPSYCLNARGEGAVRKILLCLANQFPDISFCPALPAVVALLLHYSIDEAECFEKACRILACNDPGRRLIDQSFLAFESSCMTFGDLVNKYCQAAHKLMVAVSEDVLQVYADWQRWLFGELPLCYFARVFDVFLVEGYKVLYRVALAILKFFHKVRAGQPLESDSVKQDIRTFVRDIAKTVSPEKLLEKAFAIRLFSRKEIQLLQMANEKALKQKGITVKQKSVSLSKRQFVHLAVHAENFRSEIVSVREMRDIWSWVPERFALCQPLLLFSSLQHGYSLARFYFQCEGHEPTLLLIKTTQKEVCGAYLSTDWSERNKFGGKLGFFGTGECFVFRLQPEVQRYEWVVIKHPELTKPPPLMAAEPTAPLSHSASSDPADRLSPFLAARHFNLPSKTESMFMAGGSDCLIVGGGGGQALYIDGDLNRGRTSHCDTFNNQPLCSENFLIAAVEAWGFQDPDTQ
UniProt Q5JUR7: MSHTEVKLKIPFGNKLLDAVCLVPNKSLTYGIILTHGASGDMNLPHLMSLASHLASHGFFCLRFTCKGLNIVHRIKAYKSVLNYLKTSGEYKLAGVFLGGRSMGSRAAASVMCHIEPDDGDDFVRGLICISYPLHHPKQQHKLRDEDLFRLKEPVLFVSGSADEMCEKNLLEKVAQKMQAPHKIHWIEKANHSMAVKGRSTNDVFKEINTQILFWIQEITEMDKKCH
UniProt O75347: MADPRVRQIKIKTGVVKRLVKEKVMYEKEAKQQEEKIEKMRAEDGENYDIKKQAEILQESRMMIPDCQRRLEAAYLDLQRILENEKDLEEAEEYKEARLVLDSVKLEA
UniProt Q8WUY1: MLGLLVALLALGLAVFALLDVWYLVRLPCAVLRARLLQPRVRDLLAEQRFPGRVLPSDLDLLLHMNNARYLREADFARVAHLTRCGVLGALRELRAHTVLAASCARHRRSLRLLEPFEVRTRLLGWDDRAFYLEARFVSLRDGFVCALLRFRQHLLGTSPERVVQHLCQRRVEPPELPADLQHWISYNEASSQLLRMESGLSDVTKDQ

[2] = compound: CC1=C(SC2=C1C(=N[C@H](C3=NN=C(N32)C)CC(=O)N)C4=CC=C(C=C4)Cl)C
Summary of the method: as §1

[3] = compound: CC1=C2C(=CC=C1)N=C(N(C2=O)C3=CC=CC=C3C)CN4C=NC5=C(N=CN=C54)N
Summary of the method: as §1

[4] = compound: Cc1sc2c(c1C)C(c1ccc(Cl)cc1)=N[C@@H](CC(=O)OC(C)(C)C)c1nnc(C)n1-2
Summary of the method: as §1

[5] = compound: c1ccc([C@@H]2C[C@H]2NC2CCNCC2)cc1
Summary of the method: as §1

Measured: log2 fold change

TIPRL (UniProt O75663)
inactive: [1] -0.078 | [2] 0.07 | [3] 0.083 | [4] 0.001 | [5] -0.007

THOC5 (UniProt Q13769)
inactive: [1] 0.035 | [2] -0.009 | [3] 0.017 | [4] 0.001 | [5] 0.031

TEX264 (UniProt Q9Y6I9)
inactive: [1] -0.024 | [2] 0.03 | [3] -0.072 | [4] -0.084 | [5] -0.02

TBCC (UniProt Q15814)
inactive: [1] 0.012 | [2] 0.078 | [3] 0.052 | [4] -0.027 | [5] -0.024

TES (UniProt Q9UGI8)
inactive: [1] -0.021 | [2] 0.017 | [3] -0.002 | [4] 0.005 | [5] -0.013

TFPI (UniProt P10646)
inactive: [1] 0.138 | [2] -0.164 | [3] -0.002 | [4] 0.014 | [5] 0.04

THG1L (UniProt Q9NWX6)
inactive: [1] 0.014 | [2] 0.084 | [3] 0.036 | [4] 0.014 | [5] -0.017

TELO2 (UniProt Q9Y4R8)
inactive: [1] -0.031 | [2] -0.05 | [3] 0.037 | [4] 0.039 | [5] 0.005

TBC1D22B (UniProt Q9NU19)
inactive: [1] -0.075 | [2] 0.001 | [3] 0.162 | [4] -0.028 | [5] -0.017

TBC1D5 isoform 2 (UniProt Q92609)
inactive: [1] -0.046 | [2] 0.055 | [3] 0.066 | [4] 0.003 | [5] -0.034

TESC (UniProt Q96BS2)
inactive: [1] 0.019 | [2] 0.022 | [3] 0.07 | [4] 0.002 | [5] -0.084

TGS1 (UniProt Q96RS0)
inactive: [1] -0.117 | [2] -0.155 | [3] 0.11 | [4] 0.069 | [5] -0.429

TFB2M (UniProt Q9H5Q4)
inactive: [1] -0.019 | [2] 0.035 | [3] 0.103 | [4] -0.019 | [5] -0.022

TBC1D4 (UniProt O60343)
inactive: [1] -0.054 | [2] 0.048 | [3] 0 | [4] -0.02 | [5] -0.026

TF (UniProt P02787)
inactive: [1] 0.111 | [2] -0.048 | [3] 0.063 | [4] 0.122 | [5] 0.264

TFG (UniProt Q92734)
inactive: [1] 0.028 | [2] 0.026 | [3] -0.039 | [4] 0.005 | [5] 0.077

TBCE (UniProt Q15813)
inactive: [1] -0.08 | [2] -0.005 | [3] 0.109 | [4] 0.105 | [5] -0.007

TBC1D24 (UniProt Q9ULP9)
inactive: [1] -0.108 | [2] 0.152 | [3] 0.02 | [4] -0.029 | [5] -0.061

THNSL1 (UniProt Q8IYQ7)
inactive: [1] -0.04 | [2] -0.01 | [3] 0.009 | [4] -0.025 | [5] 0.011

TJP1 (UniProt Q07157)
inactive: [1] 0 | [2] 0.028 | [3] 0.069 | [4] 0.014 | [5] 0.023

TEX30 (UniProt Q5JUR7)
inactive: [1] -0.162 | [2] -0.141 | [3] 0.235 | [4] 0.12 | [5] 0.052

TBCA (UniProt O75347)
inactive: [1] -0.02 | [2] 0.016 | [3] 0.001 | [4] 0.009 | [5] 0.021

THEM6 (UniProt Q8WUY1)
inactive: [1] 0 | [2] 0.014 | [3] -0.037 | [4] -0.037 | [5] 0.015

Copied from the listing (two entries):
THNSL1 (UniProt Q8IYQ7)
inactive: [1] -0.04 | [2] -0.01 | [3] 0.009 | [4] -0.025 | [5] 0.011

TJP1 (UniProt Q07157)
inactive: [1] 0 | [2] 0.028 | [3] 0.069 | [4] 0.014 | [5] 0.023

(continued)

TCF3 (UniProt P15923)
inactive: [1] -0.023 | [2] -0.062 | [3] 0.099 | [4] -0.004 | [5] 0.034

TECR (UniProt Q9NZ01)
inactive: [1] -0.015 | [2] 0.049 | [3] 0.033 | [4] -0.046 | [5] 0

Source: the supplement of paper PMC10849652
